In patent publication US20260224532A1, “ESTROGEN RECEPTOR BETA LIGANDS FOR THE PREVENTION AND TREATMENT OF MULTIPLE SCLEROSIS (MS) AND OTHER DEMYELINATING, INFLAMMATORY AND NEURODEGENERATIVE DISEASES” (The Board of Trustees of the University of Illinois, priority 2023, published 2026):
Some entries share one result that the patent states for a list of compounds.

System: Primary OPCs
Assay: Primary OPC culture: MBP+ OL differentiation and total cell count (DAPI)
Type: cell-based, mouse
Conditions: 1 nM
Experimental: Primary OPC Cultures: Primary OPCs, isolated from postnatal day P1 C57BL/6 male and female mouse cortices as described previously, are treated with 10 nM ligands in differentiating medium for […] (Tiwari-Woodruff et al., 2001; Tiwari-Woodruff et al., 2006). Primary OPC are cultured into 8-well chamber slides (three wells per condition, 2.5×10^5 cells/well) for three days to attach and five days in differentiating media (consisting of DMEM-F12 with triiodothyronine- and thyroxine-containing Sato as well as penicillin, streptomycin, insulin, N-acetyl-L-cysteine, forskolin, ciliary neurotrophic factor, neurotrophin-3, and platelet-derived growth factor […] (Tiwari-Woodruff et al., 2001)). A positive control (IndC1), a negative control (Vehicle consisting of the media+EtOH mixture used to dissolve IndCl), and a normal control (differentiating media alone) are used for comparison. At the end of the treatment period, cells are fixed, stained by immunocytochemistry (primary antibody polyclonal chicken myelin basic protein (MBP, Millipore AB9348), and co-stained with nuclear stain-DAPI), and imaged with an Olympus BX61 confocal microscope (Olympus America Inc., Center Valley, PA) at 10× magnification (3 images per well). Cells are counted using the ImageJ multipoint tool, and counts are then divided by the image area (mm^2). Average cell density for each condition is then divided by the normal condition cell density. Analysis of OL differentiation consists of counting the number of MBP+ cells and process extensions that are longer than the respective cell-body diameter and tracking the number of highly branched MBP+ cells (with three or more processes) (Monnerie et al., 2017). Statistics are performed using GraphPad Prism 6 Software (La Jolla, CA). One-way ANOVA with Tukey's posthoc test for multiple comparisons is used to generate p-values, and data are presented as mean±SEM (with α≤0.05).
FIG. 1A-1D show the effects of treatment with the 7-substituted indazole compounds on the expression of myelin basic protein in OLs (MBP^+-OLs, top two panels) as an indication of murine oligodendrocyte precursor cell (OPC) differentiation, as well as the count of the total cells as an indication of cell proliferation/survival (DAPI nucleus stain, bottom two panels). The cells were treated with the listed compounds at 10 nM (FIG. 1A, 1B) and at 1 nM (FIG. 1C, 1D).

## Oc1ccc(-n2nc3c(Br)cc(O)cc3c2F)cc1 [Compound 2, 7-bromo-3-fluoro-2-(4-hydroxyphenyl)-2H-indazol-5-ol]
  MBP expression compared to the vehicle-treated cells: 1.3~1.5 fold

## Oc1ccc(-n2nc3c(Br)cc(O)cc3c2Cl)cc1 [Compound 3, 7-bromo-3-chloro-2-(4-hydroxyphenyl)-2H-indazol-5-ol]
  MBP expression compared to the vehicle-treated cells: 1.3~1.5 fold

## Oc1ccc(-n2nc3c(Cl)cc(O)cc3c2Cl)cc1 [Compound 7, 3,7-dichloro-2-(4-hydroxyphenyl)-2H-indazol-5-ol]
  MBP expression compared to the vehicle-treated cells: 1.3~1.5 fold

## Oc1ccc(-n2nc3c(F)cc(O)cc3c2Cl)cc1 [Compound 9, 3-Chloro-7-fluoro-2-(4-hydroxyphenyl)-2H-indazol-5-ol]
  MBP expression compared to the vehicle-treated cells: 1.3~1.5 fold
